From patent US20230365636A1, “BIOORTHOGONAL REPORTER GENE SYSTEM” (priority 2020, published 2023)

B1: DTPA-R: membrane-anchored reporter protein with DTPA-binding Anticalin, V5-tag and CD4 transmembrane domain (protein)
chain: QDSTSDLIPAPPLSKVPLQQNFQDNQFHGKWYQVGRAGNAAPPEDPELLLLTAQTYELKEDKSYDVTAVRFRKKMCEYLTMTFVPGSQPGEFTLGNIKNYPGLTSYFVRVVSTNYNQHAMVFFKKVQQNREYFSISLLGRTKELTSELKENFIRFSKSLGLPENHIVFPVPIDQCIDASGKPIPNPLLGLDSTGAPASPVQPMALIVLGGVAGLLLFIGLGIFFCVRCRHRRR
B2: CL31d: Prior art Anticalin on human Lcn2 scaffold binding Bn-CHX-A″-DTPA•Me; in Example 7 the label denotes construct CL31d-V5-CD4TMD (protein)
chain: MPLGLLWLGLALLGALHAQAQDSTSDLIPAPPLSKVPLQQNFQDNQFHGKWYQVGRAGNAAPPEDPELLLLTAQTYELKEDKSYDVTAVRFRKKMCEYLTMTFVPGSQPGEFTLGNIKNYPGLTSYFVRVVSTNYNQHAMVFFKKVQQNREYFSISLLGRTKELTSELKENFIRFSKSLGLPENHIVFPVPIDQCIDASGKPIPNPLLGLDSTGAPASPVQPMALIVLGGVAGLLLFIGLGIFFCVRCRHRRRASTG
modifications: DTPA-V5-TMD

Assays:
Jurkat = assay: Number of reporter proteins on the cell surface by flow cytometry (anti-V5 Alexa Fluor 488, MESF kit), lentivirally transduced cells; assay type: cell-based, human
Jurkat T-cells = assay: Surface expression of reporter constructs by V5-tag flow cytometry, retrovirally transduced cells (Example 7); assay type: cell-based, human

Row | Molecule | surface expression upon T-cell activation (Jurkat; Jurkat, PMA/ionomycin activation, FIG. 9B) [copies] | increase of surface expression upon T-cell activation (Jurkat; PMA/ionomycin) [%] | fold higher cell surface expression level vs hu_scFv (C825) (Jurkat T-cells; receptors per cell, unsorted) [fold] | fold higher cell surface expression level vs mu_scFv(C825) (Jurkat T-cells; receptors per cell, unsorted) [fold] | fold higher expression vs huC825 after FACS (Jurkat T-cells; 10% highest expressing clones) [fold] | fold higher expression vs muC825 after FACS (Jurkat T-cells; 10% highest expressing clones) [fold] | fold difference in the MFI vs humanized scFv (C825) (Jurkat T-cells; unsorted) [fold] | fold difference in the MFI vs murine scFv (C825) (Jurkat T-cells; unsorted) [fold]
1 | B1 | 960.000 | ~10 | 9.1 | 8.2 | – | – | – | –
2 | B2 | – | – | – | – | 3.7 | 3.0 | 6.1 | 5.8
